Data on 16 targets can be found in the supplement of paper PMC6411743.

By UniProt entry, the sequences of proteins in these tests, tags left out. Where a name states a change or a piece, a line headed by the entry shows the natural chain unless it says otherwise.
UniProt O75817: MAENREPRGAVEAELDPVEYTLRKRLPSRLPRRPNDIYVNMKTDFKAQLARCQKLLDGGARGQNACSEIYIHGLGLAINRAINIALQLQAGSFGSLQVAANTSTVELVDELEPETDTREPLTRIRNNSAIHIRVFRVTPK
UniProt Q15003, whole entry: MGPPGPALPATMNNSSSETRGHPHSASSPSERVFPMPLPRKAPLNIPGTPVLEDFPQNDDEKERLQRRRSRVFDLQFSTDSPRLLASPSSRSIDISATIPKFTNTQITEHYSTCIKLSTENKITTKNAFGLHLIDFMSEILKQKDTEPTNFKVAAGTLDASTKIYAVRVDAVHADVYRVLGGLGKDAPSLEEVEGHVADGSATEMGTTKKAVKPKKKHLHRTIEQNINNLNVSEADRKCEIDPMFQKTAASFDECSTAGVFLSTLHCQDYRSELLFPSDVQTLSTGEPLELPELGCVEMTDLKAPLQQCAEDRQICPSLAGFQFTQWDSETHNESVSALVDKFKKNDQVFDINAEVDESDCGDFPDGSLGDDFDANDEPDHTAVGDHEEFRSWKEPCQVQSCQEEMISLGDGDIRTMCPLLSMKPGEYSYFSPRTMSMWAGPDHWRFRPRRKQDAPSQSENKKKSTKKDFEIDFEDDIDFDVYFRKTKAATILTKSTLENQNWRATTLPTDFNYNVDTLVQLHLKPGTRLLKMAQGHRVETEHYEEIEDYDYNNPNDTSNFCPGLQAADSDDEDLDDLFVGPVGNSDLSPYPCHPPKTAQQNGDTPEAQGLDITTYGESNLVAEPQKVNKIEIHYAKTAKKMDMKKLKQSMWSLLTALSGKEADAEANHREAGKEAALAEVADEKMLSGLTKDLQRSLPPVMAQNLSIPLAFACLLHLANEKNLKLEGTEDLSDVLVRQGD
UniProt Q13724: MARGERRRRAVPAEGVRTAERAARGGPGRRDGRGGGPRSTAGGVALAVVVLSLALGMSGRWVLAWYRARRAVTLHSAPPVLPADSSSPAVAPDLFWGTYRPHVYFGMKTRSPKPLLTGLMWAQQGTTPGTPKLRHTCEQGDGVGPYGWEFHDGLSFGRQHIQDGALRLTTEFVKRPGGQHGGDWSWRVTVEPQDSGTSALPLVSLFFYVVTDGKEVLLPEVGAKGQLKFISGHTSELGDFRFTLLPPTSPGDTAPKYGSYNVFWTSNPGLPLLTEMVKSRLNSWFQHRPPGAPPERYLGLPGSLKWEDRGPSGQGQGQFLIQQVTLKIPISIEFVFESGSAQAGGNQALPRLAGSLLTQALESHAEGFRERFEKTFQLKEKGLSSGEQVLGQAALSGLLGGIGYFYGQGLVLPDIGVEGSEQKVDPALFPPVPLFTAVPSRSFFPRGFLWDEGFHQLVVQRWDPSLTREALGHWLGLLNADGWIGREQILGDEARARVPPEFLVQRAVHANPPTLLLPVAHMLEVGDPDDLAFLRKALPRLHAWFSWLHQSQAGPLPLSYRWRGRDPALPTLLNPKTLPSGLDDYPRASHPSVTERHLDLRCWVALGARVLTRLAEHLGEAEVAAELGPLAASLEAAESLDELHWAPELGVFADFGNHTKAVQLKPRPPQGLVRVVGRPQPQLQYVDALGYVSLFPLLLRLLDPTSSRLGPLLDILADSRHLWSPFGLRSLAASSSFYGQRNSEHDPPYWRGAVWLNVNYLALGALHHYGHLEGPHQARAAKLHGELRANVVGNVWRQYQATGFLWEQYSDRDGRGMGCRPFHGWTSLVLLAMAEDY
UniProt Q9NQG6: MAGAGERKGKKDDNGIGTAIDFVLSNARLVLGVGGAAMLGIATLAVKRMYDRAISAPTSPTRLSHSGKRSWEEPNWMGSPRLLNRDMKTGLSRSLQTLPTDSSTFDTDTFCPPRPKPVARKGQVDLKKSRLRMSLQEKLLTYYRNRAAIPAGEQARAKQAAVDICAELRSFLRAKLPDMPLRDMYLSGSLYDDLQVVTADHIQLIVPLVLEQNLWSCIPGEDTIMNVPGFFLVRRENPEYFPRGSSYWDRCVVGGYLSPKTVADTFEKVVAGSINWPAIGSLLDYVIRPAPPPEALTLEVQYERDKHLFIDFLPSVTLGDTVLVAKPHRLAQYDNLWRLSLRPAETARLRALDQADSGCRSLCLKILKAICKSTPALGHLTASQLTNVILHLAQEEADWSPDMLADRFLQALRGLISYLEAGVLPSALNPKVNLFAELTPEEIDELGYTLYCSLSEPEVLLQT
UniProt A5PLN9: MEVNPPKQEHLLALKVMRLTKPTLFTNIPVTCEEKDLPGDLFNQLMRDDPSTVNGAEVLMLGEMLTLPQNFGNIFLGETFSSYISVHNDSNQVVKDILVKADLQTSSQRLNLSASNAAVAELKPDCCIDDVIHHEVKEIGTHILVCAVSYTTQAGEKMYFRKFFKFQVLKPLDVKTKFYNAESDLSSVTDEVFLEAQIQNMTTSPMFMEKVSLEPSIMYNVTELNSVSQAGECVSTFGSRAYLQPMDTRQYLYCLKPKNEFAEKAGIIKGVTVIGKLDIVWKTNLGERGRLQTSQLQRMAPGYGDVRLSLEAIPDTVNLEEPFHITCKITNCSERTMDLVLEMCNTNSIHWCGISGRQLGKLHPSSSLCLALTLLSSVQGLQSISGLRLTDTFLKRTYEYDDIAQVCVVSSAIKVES
UniProt A2RU67: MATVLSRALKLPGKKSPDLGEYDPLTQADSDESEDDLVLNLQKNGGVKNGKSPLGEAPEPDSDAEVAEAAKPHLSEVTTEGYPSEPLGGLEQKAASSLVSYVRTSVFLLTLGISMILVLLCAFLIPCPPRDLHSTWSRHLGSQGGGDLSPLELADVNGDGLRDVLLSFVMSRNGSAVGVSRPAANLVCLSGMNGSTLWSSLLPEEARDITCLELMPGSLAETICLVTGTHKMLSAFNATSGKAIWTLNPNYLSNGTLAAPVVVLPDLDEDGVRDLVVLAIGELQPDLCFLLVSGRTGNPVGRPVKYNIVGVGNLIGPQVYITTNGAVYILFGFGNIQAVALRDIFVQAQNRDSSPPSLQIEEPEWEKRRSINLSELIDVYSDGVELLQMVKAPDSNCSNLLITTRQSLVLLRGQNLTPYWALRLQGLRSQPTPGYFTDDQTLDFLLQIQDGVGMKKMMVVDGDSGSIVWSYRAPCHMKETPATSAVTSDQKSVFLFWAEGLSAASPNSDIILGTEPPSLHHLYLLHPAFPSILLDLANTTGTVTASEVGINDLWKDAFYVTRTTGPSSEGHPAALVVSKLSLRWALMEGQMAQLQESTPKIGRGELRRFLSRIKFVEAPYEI
UniProt Q6NW29: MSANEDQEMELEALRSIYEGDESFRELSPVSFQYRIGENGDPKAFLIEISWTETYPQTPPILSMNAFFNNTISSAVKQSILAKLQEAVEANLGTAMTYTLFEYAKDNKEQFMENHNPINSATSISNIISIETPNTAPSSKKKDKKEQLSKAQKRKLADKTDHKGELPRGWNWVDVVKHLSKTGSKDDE
UniProt Q9NVN3: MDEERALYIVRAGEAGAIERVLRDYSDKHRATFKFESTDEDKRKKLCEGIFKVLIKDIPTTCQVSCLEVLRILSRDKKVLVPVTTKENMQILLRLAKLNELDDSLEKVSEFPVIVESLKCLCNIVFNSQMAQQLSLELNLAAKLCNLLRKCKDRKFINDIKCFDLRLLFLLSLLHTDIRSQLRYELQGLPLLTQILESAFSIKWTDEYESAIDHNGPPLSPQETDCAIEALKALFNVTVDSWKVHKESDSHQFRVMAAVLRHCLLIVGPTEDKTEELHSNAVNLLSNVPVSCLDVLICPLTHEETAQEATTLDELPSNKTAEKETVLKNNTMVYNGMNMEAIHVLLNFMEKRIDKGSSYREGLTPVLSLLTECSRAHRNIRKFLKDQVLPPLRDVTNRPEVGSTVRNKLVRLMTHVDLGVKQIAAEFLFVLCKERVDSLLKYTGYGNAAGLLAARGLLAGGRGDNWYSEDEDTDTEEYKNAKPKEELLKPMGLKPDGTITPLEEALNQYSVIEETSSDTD
UniProt Q0PNE2: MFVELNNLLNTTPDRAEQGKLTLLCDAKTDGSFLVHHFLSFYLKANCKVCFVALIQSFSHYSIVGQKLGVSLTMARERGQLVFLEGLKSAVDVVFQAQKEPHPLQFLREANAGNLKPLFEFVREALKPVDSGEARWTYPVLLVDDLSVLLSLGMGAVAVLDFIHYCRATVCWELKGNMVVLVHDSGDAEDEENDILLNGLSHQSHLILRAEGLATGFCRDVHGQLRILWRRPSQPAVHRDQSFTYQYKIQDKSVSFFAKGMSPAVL
UniProt O76075: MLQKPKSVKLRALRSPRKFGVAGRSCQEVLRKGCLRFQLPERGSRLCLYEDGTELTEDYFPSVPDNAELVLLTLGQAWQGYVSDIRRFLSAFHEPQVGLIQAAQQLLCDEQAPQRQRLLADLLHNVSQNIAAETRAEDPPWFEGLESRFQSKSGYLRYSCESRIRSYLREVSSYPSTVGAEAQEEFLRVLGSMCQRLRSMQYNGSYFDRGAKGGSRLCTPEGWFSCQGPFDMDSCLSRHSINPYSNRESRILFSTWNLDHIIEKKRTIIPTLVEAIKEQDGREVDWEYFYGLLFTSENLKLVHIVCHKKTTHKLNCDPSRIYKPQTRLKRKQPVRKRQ
UniProt A6NHR9: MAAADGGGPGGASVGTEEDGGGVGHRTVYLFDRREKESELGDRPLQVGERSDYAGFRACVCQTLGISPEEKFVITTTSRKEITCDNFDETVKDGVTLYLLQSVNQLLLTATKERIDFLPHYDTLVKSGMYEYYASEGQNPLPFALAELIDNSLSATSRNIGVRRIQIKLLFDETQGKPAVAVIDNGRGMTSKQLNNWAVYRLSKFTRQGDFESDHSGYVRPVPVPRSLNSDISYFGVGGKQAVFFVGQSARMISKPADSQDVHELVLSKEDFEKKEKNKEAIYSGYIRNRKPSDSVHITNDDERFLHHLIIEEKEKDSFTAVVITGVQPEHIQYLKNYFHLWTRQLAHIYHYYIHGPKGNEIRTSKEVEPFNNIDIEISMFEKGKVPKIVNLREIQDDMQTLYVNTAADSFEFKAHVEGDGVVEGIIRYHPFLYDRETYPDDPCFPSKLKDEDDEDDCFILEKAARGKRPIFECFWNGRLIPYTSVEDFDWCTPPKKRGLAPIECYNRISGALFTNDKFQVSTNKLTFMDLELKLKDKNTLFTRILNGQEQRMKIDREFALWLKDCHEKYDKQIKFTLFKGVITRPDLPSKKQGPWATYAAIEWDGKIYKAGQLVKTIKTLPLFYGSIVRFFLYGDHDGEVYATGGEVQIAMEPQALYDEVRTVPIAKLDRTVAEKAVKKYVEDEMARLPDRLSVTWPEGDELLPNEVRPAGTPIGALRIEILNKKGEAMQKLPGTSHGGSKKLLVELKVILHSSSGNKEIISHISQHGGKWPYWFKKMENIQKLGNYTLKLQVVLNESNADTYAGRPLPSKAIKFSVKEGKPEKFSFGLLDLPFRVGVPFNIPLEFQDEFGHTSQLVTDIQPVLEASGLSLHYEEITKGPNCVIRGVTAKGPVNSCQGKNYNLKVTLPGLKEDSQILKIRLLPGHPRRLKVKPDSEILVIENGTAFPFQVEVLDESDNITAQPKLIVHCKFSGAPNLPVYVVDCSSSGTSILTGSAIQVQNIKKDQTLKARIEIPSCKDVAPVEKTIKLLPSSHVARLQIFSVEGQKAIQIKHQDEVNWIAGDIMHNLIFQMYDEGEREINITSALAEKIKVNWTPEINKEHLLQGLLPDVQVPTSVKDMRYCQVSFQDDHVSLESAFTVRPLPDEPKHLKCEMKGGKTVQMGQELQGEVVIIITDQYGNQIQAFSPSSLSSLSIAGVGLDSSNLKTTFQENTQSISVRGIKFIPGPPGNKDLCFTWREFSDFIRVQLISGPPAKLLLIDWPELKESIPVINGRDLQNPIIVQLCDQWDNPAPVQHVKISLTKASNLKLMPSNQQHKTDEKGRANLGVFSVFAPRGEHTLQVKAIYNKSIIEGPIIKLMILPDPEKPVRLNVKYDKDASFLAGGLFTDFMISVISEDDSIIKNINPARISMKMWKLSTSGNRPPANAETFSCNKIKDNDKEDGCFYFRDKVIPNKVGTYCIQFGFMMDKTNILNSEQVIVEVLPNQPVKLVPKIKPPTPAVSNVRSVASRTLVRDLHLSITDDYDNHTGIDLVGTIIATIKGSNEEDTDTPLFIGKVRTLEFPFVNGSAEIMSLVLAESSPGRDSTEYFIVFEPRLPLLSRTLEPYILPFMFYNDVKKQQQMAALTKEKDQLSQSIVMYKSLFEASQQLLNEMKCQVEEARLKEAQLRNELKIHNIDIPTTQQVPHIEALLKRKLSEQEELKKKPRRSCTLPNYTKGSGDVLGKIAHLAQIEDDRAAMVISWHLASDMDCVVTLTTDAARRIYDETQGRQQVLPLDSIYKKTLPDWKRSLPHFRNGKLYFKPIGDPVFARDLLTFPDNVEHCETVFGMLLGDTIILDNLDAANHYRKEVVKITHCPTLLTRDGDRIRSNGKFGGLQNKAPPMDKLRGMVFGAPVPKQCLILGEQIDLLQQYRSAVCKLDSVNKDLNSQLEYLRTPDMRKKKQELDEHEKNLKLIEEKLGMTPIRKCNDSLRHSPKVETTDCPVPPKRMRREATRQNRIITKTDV

± gives the standard deviation of the averaged measurements. Only a part is listed here, and it is no random draw.

Compound in the assay: Nc1ncnc2c1ncn2[C@@H]1O[C@H](COP(=O)(O)OP(=O)(O)NP(=O)(O)O)[C@@H](O)[C@H]1O [adenylyl imidodiphosphate]
The experiment in a line: NP40-soluble protein abundance relative to vehicle (solubility fold change) (ratio); higher = more soluble protein in presence of AMP-PNP. The essentials:
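Crude Jurkat lysate, prepared by Dounce homogenisation, was exposed to eight concentrations from 0.1 to 10 mM for 10 min at room temperature and then 3 min at 37 °C. Solubilisation used 0.8% NP40 with benzonase for 60 min at 4 °C, followed by ultracentrifugation and TMT labelling of the supernatant for LC-MS/MS. After vsn normalisation of intensities, each value is the fold change against the detergent-processed vehicle within each replicate, across three independent experiments.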

“A8MTY9 and related entries (UniProt O14972)”: the NP40-soluble protein abundance was 0.984 ± 0.021 (concentration: 1mM); 0.941 ± 0.071 (concentration: 2mM); 0.978 ± 0.03 (concentration: 4mM); 0.987 ± 0.024 (concentration: 6mM); 0.987 ± 0.061 (concentration: 8mM); 0.956 ± 0.071 (concentration: 10mM).

Turning to “C9JYM0 and related entries (UniProt O75817)”, the NP40-soluble protein abundance came to 0.987 ± 0.029 (concentration: 1mM); 0.983 ± 0.048 (concentration: 2mM); 1.04 ± 0.098 (concentration: 4mM); 1.01 ± 0.038 (concentration: 6mM); 1.0179 ± 0.0003 (concentration: 8mM); 1.02 ± 0.047 (concentration: 10mM).

“C9J470 and related entries (UniProt Q15003)”: the NP40-soluble protein abundance is, setting by setting: (concentration: 1mM) 0.988 ± 0.027; (concentration: 2mM) 1.01 ± 0.014; (concentration: 4mM) 0.987 ± 0.028; (concentration: 6mM) 1.01 ± 0.029; (concentration: 8mM) 0.943 ± 0.022; (concentration: 10mM) 1.01 ± 0.038.

Regarding “C9JDQ1 and related entries (UniProt Q13724)”, the NP40-soluble protein abundance runs as follows: (concentration: 1mM) 0.979 ± 0.013; (concentration: 2mM) 0.942 ± 0.12; (concentration: 4mM) 1.01 ± 0.039; (concentration: 6mM) 0.968 ± 0.014; (concentration: 8mM) 1 ± 0.05; (concentration: 10mM) 0.965 ± 0.032.

For “B0QY95 and related entries (UniProt Q9NQG6+B0QY95)”, the NP40-soluble protein abundance by setting is: (concentration: 1mM) 1.03 ± 0.03; (concentration: 2mM) 0.995 ± 0.028; (concentration: 4mM) 0.9979 ± 0.0077; (concentration: 6mM) 1.01 ± 0.016; (concentration: 8mM) 1.04 ± 0.019; (concentration: 10mM) 1 ± 0.035.

Turning to UniProt A5PLN9 and related entries, the NP40-soluble protein abundance by setting is: (concentration: 1mM) 0.966 ± 0.02; (concentration: 2mM) 0.943 ± 0.019; (concentration: 4mM) 0.963 ± 0.015; (concentration: 6mM) 0.939 ± 0.017; (concentration: 8mM) 0.973 ± 0.032; (concentration: 10mM) 0.9378 ± 0.0061.

Turning to “C9JCW7 and related entries (UniProt Q9BVT8)”, the NP40-soluble protein abundance was found to be 1 ± 0.027 (concentration: 1mM); 1.01 ± 0.049 (concentration: 2mM); 0.979 ± 0.032 (concentration: 4mM); 1 ± 0.022 (concentration: 6mM); 0.975 ± 0.05 (concentration: 8mM); 0.967 ± 0.033 (concentration: 10mM).

For the target UniProt A2RU67, the NP40-soluble protein abundance is, setting by setting: (concentration: 1mM) 0.9918 ± 0.004; (concentration: 2mM) 1.03 ± 0.031; (concentration: 4mM) 1.02 ± 0.021; (concentration: 6mM) 1 ± 0.019; (concentration: 8mM) 1 ± 0.017; (concentration: 10mM) 1.03 ± 0.016.

Consider “D6R9C7 and related entries (UniProt Q6NW29)”, for which the NP40-soluble protein abundance was found to be 0.98 ± 0.039 (concentration: 1mM); 0.975 ± 0.034 (concentration: 2mM); 0.97 ± 0.043 (concentration: 4mM); 0.95 ± 0.028 (concentration: 6mM); 0.947 ± 0.043 (concentration: 8mM); 0.907 ± 0.071 (concentration: 10mM).

As to “B7WPL0 and related entries (UniProt Q9NVN3)”, the NP40-soluble protein abundance reads like this: (concentration: 1mM) 0.982 ± 0.013; (concentration: 2mM) 0.971 ± 0.023; (concentration: 4mM) 0.997 ± 0.017; (concentration: 6mM) 0.962 ± 0.032; (concentration: 8mM) 0.982 ± 0.016; (concentration: 10mM) 0.967 ± 0.01.

With “C9JVP0 and related entries (UniProt Q9UPW0)”, the NP40-soluble protein abundance is 1.012 ± 0.0019 (concentration: 1mM); 1.04 ± 0.075 (concentration: 2mM); 0.9962 ± 0.0041 (concentration: 4mM); 1 ± 0.029 (concentration: 6mM); 1.01 ± 0.022 (concentration: 8mM); 1.04 ± 0.019 (concentration: 10mM).

Turning to “C9IYN7 and related entries (UniProt Q0PNE2)”, the NP40-soluble protein abundance reads like this: (concentration: 1mM) 0.944 ± 0.058; (concentration: 2mM) 0.905 ± 0.071; (concentration: 4mM) 0.931 ± 0.11; (concentration: 6mM) 0.949 ± 0.053; (concentration: 8mM) 0.998 ± 0.07; (concentration: 10mM) 0.947 ± 0.085.

Take “B4DZS0 and related entries (UniProt O76075)”: the NP40-soluble protein abundance worked out at 0.944 ± 0.021 (concentration: 1mM); 0.924 ± 0.048 (concentration: 2mM); 0.933 ± 0.016 (concentration: 4mM); 0.948 ± 0.054 (concentration: 6mM); 0.982 ± 0.018 (concentration: 8mM); 0.959 ± 0.029 (concentration: 10mM).

Consider “C9JJN9 and related entries (UniProt Q8N3P4)”, for which the NP40-soluble protein abundance was 0.968 ± 0.021 (concentration: 1mM); 0.978 ± 0.039 (concentration: 2mM); 0.976 ± 0.021 (concentration: 4mM); 0.953 ± 0.032 (concentration: 6mM); 0.955 ± 0.033 (concentration: 8mM); 0.9355 ± 0.0078 (concentration: 10mM).

Consider “B4DP61 and related entries (UniProt Q16637+E7EQZ4+B4DP61)”, for which the NP40-soluble protein abundance (concentration: 1mM) amounted to 0.961 ± 0.093; the NP40-soluble protein abundance (concentration: 2mM) is 1.03 ± 0.064; the NP40-soluble protein abundance (concentration: 4mM) came to 0.93 ± 0.077; the NP40-soluble protein abundance (concentration: 6mM) stood at 1 ± 0.11; the NP40-soluble protein abundance (concentration: 8mM) worked out at 0.95 ± 0.053; the NP40-soluble protein abundance (concentration: 10mM) was 0.993 ± 0.13.

Take SMCHD1 (UniProt A6NHR9): the NP40-soluble protein abundance (concentration: 1mM) turned out to be 1 ± 0.013; the NP40-soluble protein abundance (concentration: 2mM) amounted to 0.948 ± 0.11; the NP40-soluble protein abundance (concentration: 4mM) came to 1.01 ± 0.018; the NP40-soluble protein abundance (concentration: 6mM) was 1.01 ± 0.019; the NP40-soluble protein abundance (concentration: 8mM) was 1.03 ± 0.016; the NP40-soluble protein abundance (concentration: 10mM) stood at 1.01 ± 0.026.
